# Measured values taken from PubChem BioAssay AID1347076 (National Center for Advancing Translational Sciences (NCATS), 2019).
# Screen size: about 400,000 compounds; about 13,000 (3.2%) were called active. The shares of active, inactive and inconclusive entries below differ from those in the screen. Calls follow the shape of the dose curve; as a rule, active = well fitted cell-killing curve with a large enough effect; inconclusive = small, poorly fitted or top-dose-only effect, or effect the other way; inactive = flat fitted curve, though single readings scatter. Where the call is inconclusive, the potency comes from a doubtful curve fit.
# Assay: qHTS assay for MDR1-selective chemotherapeutics: Primary screen using the drug-selected MDR subline cells KB-V1; also: nearly all actives have a fitted effect of over 60% in size
# Conditions: KB-V1 MDR cells viability, CellTiter-Glo, 72 h; activity change, negative = cytotoxicity: at 46.1 µM (top of the series)
# In short: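 Cells of the MDR subline KB-V1 are plated, dosed with compound at multiple concentrations, and incubated 72 h at 37 degrees C; CellTiter-Glo is then added and luminescence read after 10 min.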
# % is scaled to controls: 0 for no effect and ±100 for the full control effect; potency is read from the fitted curve at half-maximal effect.
Compound,Potency,"activity change, negative = cytotoxicity"
N#Cc1ccc(C2N=C(c3ccccc3)NO2)cc1 (stereo not given),active: 18.4 µM,–
COC(=O)[C@]12C(=O)NC[C@H](CN1c1ccc(C(F)(F)F)cc1)N2C,–,inactive: -11.5%
CCOc1ccc(NC(=O)C[n+]2ccc(N(C)C)cc2)cc1,–,inactive: 25.3%
CCC(C(=O)NC1CCCC1)n1c(C2CCCC2)nc2ccccc21 (stereo not given),"inconclusive: 9.2 µM [cytotoxic, partial curve, poor fit]",–
COc1ccc(NC(=O)C2CCCN(c3nc(C)cc(C)n3)C2)cc1 (stereo not given),"inconclusive: 25.9 µM [cytotoxic, single point]",–
Cc1nnc(SCC(=O)c2cc(C)n(-c3c(C)n(C)n(-c4ccccc4)c3=O)c2C)s1,–,inactive: -1.72%
O=C(CSc1nc2c(sc3ccccc32)c(=O)n1CCCN1CCOCC1)NCC1CCCO1 (stereo not given),"inconclusive: 3.66 µM [cytotoxic, partial curve, poor fit]",–
CCCCCCn1cc(CN2CC(N3CCN(CCO)CC3)CS2(=O)=O)nn1 (stereo not given),–,inactive: -6.17%
Cc1ccccc1-n1cnnc1SCC(=O)N1CCN(c2ccccc2)CC1,"inconclusive: 23.1 µM [cytotoxic, partial curve, poor fit]",–
COc1ccc(OC)c(NC(=O)C2CCN(Cc3cnn(-c4ccccc4)c3-n3cccc3)CC2)c1,active: 8.2 µM,–
CCN(CC)S(=O)(=O)c1ccc(C(=O)Nc2nnc(-c3ccco3)o2)cc1,"inconclusive: 23.1 µM [cytotoxic, single point]",–
CCOc1ccc(NC(=O)c2ccccc2NC(=O)CN(C)CC(=O)Nc2ccc(C)cc2)cc1,–,inactive: 0%
Cn1c(Cn2c(=O)sc3ccccc32)nnc1SCc1ccc(F)cc1,"inconclusive: 29.1 µM [cytotoxic, single point]",–
COc1ccc2c(c1)CCCO[C@]21O[C@H](CCO)C[C@H](O)[C@H]1O,–,inactive: -6.9%
CCCc1ccc2oc(C(=O)N(C)Cc3cnccn3)c(C)c2c1,"inconclusive: 29.1 µM [cytotoxic, partial curve, poor fit]",–
Cc1ccc(CNS(=O)(=O)c2cn(C)cn2)cc1,–,inactive: -4.08%
Cc1ccc(C(=O)COC(=O)c2cccc(NC(=O)c3ccc([N+](=O)[O-])cc3[N+](=O)[O-])c2)cc1,active: 18.4 µM,–
CN(C(=O)C=Cc1ccccc1)c1ccccc1,–,inactive: 3.77%
O=C(OC1CC2CC1[C@H]1CCCCN1C2=O)N1CCN(S(=O)(=O)c2ccccc2)CC1 (stereo not given in full),–,inactive: -0.635%
Cc1nc(N(C)C)c2sc(=S)n(Cc3ccccc3)c2n1,"inconclusive: 16.4 µM [cytotoxic, partial curve, poor fit]",–
CCN1C(=O)c2cccc3c(S(=O)(=O)NCCCN4CCOCC4)ccc1c23,–,inactive: -10.3%
CCCCN(C(=O)c1ccc(Cl)cc1)C1CC2CCC(C1)N2C (stereo not given),–,inactive: -3.46%
COCCCNC(=O)C1CC(=O)N(c2ccc(C)cc2)C1 (stereo not given),"inconclusive: 0.461 µM [rising, partial curve, poor fit]",–
COc1ccccc1C(=O)NC(=O)COc1ccc([N+](=O)[O-])cc1,"inconclusive: 10.3 µM [rising, partial curve, poor fit]",–
O=C(NCc1cc(Cl)cc(Cl)c1)c1ccc2sc([C@@H]3O[C@H](CO)[C@H](O)[C@H](O)[C@H]3O)nc2c1,–,inactive: 5.48%

Compound,Potency,"activity change, negative = cytotoxicity"
O=S1(=O)C[C@H](N2CCCC2)[C@@H](COCc2ccccc2)N1,–,inactive: -14.8%
Cc1cc(C)n(CC(=O)Nc2ccc(N3CCOCC3)c(Cl)c2)c(=O)c1C#N,"inconclusive: 29.1 µM [rising, single point]",–
CC(=O)Nc1ccc2cc3ccc(NC(C)=O)cc3nc2c1,–,inactive: -10.3%
O=C(O)c1[nH]c2ccc([N+](=O)[O-])cc2c1-c1ccccc1,–,inactive: 22.8%
COc1ccc(S(=O)(=O)N(C)CC(=O)Nc2ccc(C)cc2)cc1OC,"inconclusive: 16.4 µM [cytotoxic, single point]",–
CC(C)c1cc(C(=O)NC2CCCCCC2)c2ccccc2n1,–,inactive: -27.2%
Cc1ccc(Cn2c(NS(=O)(=O)c3ccccc3)nc3ccccc32)cc1,–,inactive: -5.98%
CCOC(=O)[C@]12CCCC=C1N(Cc1cccc3ccccc13)C(=O)[C@H](CC(=O)N1CCCCC1)C2,active: 9.2 µM,–
N#CCCN(C(=O)COC(=O)C1CCN(S(=O)(=O)c2cccs2)CC1)c1ccccc1,–,inactive: 11.8%
CC1=C(C(=O)OC2CCCCCC2)C(c2c(Cl)cccc2Cl)CC(=O)N1 (stereo not given),–,inactive: 0%
COCCCNC(=O)c1cc2cc(Br)ccc2oc1=O,–,inactive: -1.03%
COCCCn1c(=O)/c(=C\c2ccccc2OC(F)F)s/c1=C(/C#N)C(=O)NCCOC,–,inactive: 8.24%
CCOC(=O)c1ccc(NC(=O)COc2ccccc2CNC2CCCC2)cc1,"inconclusive: 8.2 µM [cytotoxic, partial curve, poor fit]",–
COC(=O)c1c(C)nc2ccccc2c1-c1ccccc1,"inconclusive: 20.6 µM [cytotoxic, single point]",–
COc1ccc(-c2nnc(SCC(=O)NNC(=O)Cc3ccccc3)n2C)cc1OC,"inconclusive: 29.1 µM [rising, single point]",–
CCOCCCNC(=O)C(c1ccc(Cl)cc1)N1CCC2(CC1)OCCO2 (stereo not given),"inconclusive: 20.6 µM [cytotoxic, partial curve]",–
CCCC(c1nnnn1CCOC)N1CCN(c2nc3ccccc3s2)CC1 (stereo not given),"inconclusive: 7.31 µM [cytotoxic, partial curve]",–
Cc1ccc(S(=O)(=O)N2CCN=C2SCc2ccccc2)cc1,–,inactive: 8.06%
O=C(COc1ccccc1)NNc1c2ccccc2nc2ccccc12,active: 18.4 µM,–
N#Cc1c(C(F)(F)F)cc(-c2ccc(Cl)c(Cl)c2)nc1SCCN1CCOCC1,"inconclusive: 9.2 µM [cytotoxic, partial curve]",–
CCOCC(=O)Nc1cc(C(F)(F)F)ccc1Oc1cccc(Br)c1,"inconclusive: 16.4 µM [cytotoxic, partial curve, poor fit]",–
O=C(Cn1ncc(Cl)c(Cl)c1=O)NCC1CCCCC1,–,inactive: 3.03%
Cn1c(SCC(=O)O)nc2sc3c(c2c1=O)CCC3,"inconclusive: 6.51 µM [rising, partial curve]",–
CC(C)=CCC/C(C)=C/CNC(=O)C[C@H]1C[C@H](C(=O)N2CCOCC2)[C@@]2(C)c3[nH]c4ccc(Cl)cc4c3CCN2C1=O,"inconclusive: 16.4 µM [cytotoxic, single point]",–
Cc1ccc(S(=O)(=O)NNC(=S)Nc2cccc(C)c2C)cc1,"inconclusive: 14.6 µM [rising, partial curve, poor fit]",–

Compound,Potency,"activity change, negative = cytotoxicity"
Cn1c(=O)c2c(nc(NCCO)n2CCCc2ccccc2)n(C)c1=O,–,inactive: 2.6%
COc1ccc(CN2C[C@@H](CO)O[C@@H](n3cnc4c(NCc5ccc(F)cc5)ncnc43)C2)cc1,–,inactive: 1.4%
O=C(Nc1c(-c2ccccc2)nc2ncccn12)c1cc2ccccc2oc1=O,–,inactive: 20.1%
Cc1ccc(CN2CC(C(=O)Nc3cccc(S(=O)(=O)N4CCCCC4)c3)CC2=O)cc1 (stereo not given),"inconclusive: 20.6 µM [cytotoxic, partial curve]",–
S=C(NCc1ccco1)N1CCN(C(c2ccccc2)c2ccccc2)CC1,–,inactive: -29.5%
CN(C)c1ccc(/C=C2\c3ccccc3C(=O)N2c2ccccc2)cn1,"inconclusive: 20.6 µM [cytotoxic, single point]",–
CC1(C)CC(=O)C(C(=O)Cc2ccccc2[N+](=O)[O-])C(=O)C1,"inconclusive: 20.6 µM [cytotoxic, single point]",–
O=C(Nc1ccc(N2CCCC2)cc1)c1cccc(F)c1,–,inactive: -14.9%
CC(C)CN(CC(C)C)C(=O)C12CCC(C)(C(=O)C1)C2(C)C (stereo not given),–,inactive: 0%
COCc1nnc(NC(=O)c2ccc(S(=O)(=O)N(C)c3ccccc3)cc2)o1,–,inactive: -5.78%
Cc1csc(NC(=O)CSc2nc3ccccc3c(=O)[nH]2)n1,–,inactive: 0%
O=C(C[C@H]1CC[C@@H]2[C@H](COC[C@H](O)CN2Cc2cccc(F)c2)O1)NCc1cccc(F)c1,–,inactive: -18.2%
O=C(O)C1(Nc2ccccc2)CCCC1,–,inactive: -2.65%
COc1ccc(N2CCN(CC(O)COc3ccc(C(C)C)c(C)c3)CC2)cc1 (stereo not given),"inconclusive: 10.3 µM [cytotoxic, partial curve, poor fit]",–
COc1cc2c(cc1OC)C1=C(C#N)CC/C(=N\S(=O)(=O)c3ccccc3)N1CC2,"inconclusive: 25.9 µM [cytotoxic, single point]",–
COc1ccc2nc3oc(C(=O)N(C)c4ccc(Cl)cc4)cc3cc2c1,–,inactive: 3.01%
O=C(Nc1ccc(Cl)c(Cl)c1)C1CCN(C(=O)c2ccco2)CC1,"inconclusive: 29.1 µM [cytotoxic, single point]",–
CN(Cc1c(C(=O)N/N=C/c2cccc(O)c2)nnn1-c1nonc1N)C1CCCCC1,"inconclusive: 0.0103 µM [rising, full curve]",–
Cc1ccc(C)c(N=C2CCCN2Cc2ccccc2)c1C#N,"inconclusive: 13 µM [cytotoxic, partial curve]",–
Cc1n[nH]c(=O)c2c(NC(=O)CSc3nn(-c4ccc(F)cc4)c(=S)s3)oc(C)c12,"inconclusive: 29.1 µM [rising, single point]",–
CC1(CCC(=O)N2CCCC(N3CCN(c4cccc(C(F)(F)F)c4)CC3)C2)CC1 (stereo not given),"inconclusive: 23.1 µM [cytotoxic, single point]",–
O=C(c1[nH]c(C(F)(F)F)nc1-c1ccccc1)N1CCN(c2ncccc2C(F)(F)F)CC1,"inconclusive: 29.1 µM [cytotoxic, single point]",–
CCCOc1ccc(N2C(=O)CC(NCCNc3ccc([N+](=O)[O-])cn3)C2=O)cc1 (stereo not given),–,inactive: 20.4%
CC(C)CCNC(=O)CCSCCC(=O)NCCC(C)C,–,inconclusive: -40.7%
COC(=O)[C@@]12C[C@@H](CC(=O)N3CCCC3)C(=O)N(Cc3ccco3)C1=CCC(C)(C)C2,"inconclusive: 1.03 µM [cytotoxic, full curve]",–

# Sorted by length of the SMILES (low to high): some entries from above.
Compound,Potency,"activity change, negative = cytotoxicity"
CC1(C)CC(=O)C(C(=O)Cc2ccccc2[N+](=O)[O-])C(=O)C1,"inconclusive: 20.6 µM [cytotoxic, single point]",–
COCc1nnc(NC(=O)c2ccc(S(=O)(=O)N(C)c3ccccc3)cc2)o1,–,inactive: -5.78%
CCCOc1ccc(N2C(=O)CC(NCCNc3ccc([N+](=O)[O-])cn3)C2=O)cc1 (stereo not given),–,inactive: 20.4%
COc1ccc(CN2C[C@@H](CO)O[C@@H](n3cnc4c(NCc5ccc(F)cc5)ncnc43)C2)cc1,–,inactive: 1.4%
